Data published in publication PMC10164551, “Structural basis of tRNAPro acceptor stem recognition by a bacterial trans-editing domain”.
Changes are numbered by the printed parent chain. A weaker result is weaker than the reference pair of the same experiment. Protein sequences can lack the tags named with them.

What was measured:
[1] = molecular target: T1, ProXp-ala K45A (Caulobacter crescentus) (UniProt Q9ABV9); experiment: NMR; details: small CSPs, reduced binding; NMR: same phosphate buffer, 10% D2O, 25 °C; recombinant protein; residues 1-168
T1 sequence (looked up): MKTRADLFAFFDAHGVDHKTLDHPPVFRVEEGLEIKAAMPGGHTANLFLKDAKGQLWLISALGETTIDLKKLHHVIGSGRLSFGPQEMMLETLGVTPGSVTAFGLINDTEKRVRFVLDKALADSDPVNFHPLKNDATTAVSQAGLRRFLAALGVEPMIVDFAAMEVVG

[2] = molecular target: T2, ProXp-ala R80A (Caulobacter crescentus) (UniProt Q9ABV9); experiment: AUC; details: 1 mM MgCl2, sw at 9.6 μM similar to apo RNA, very weak interaction; AUC: 50 mM HEPES pH 6.8, 30 mM KCl, 1 mM MgCl2, 20 °C; recombinant protein; residues 1-168
T2 sequence (looked up): T1 sequence (looked up) with A45K, R80A

Sequence	binding result [1]	binding result [2]
CGGCGAGGGAGGUUCGAAUCCUCUCUCGCCGACCA [minihelixPro]	binds more weakly	–
CGGCGAGUUCGCUCGCCGACCA [microhelixPro]	–	binds more weakly
